Experiment [1] deals with T1, pro-interleukin-1β (UniProt P01584 1-269).
T1 construct: pro-interleukin-1β (uncleaved precursor of IL-1β); Printed mass 31.9 kDa; The FLAG tag is named for the co-immunoprecipitation; also called pro-IL-1β; FLAG-tagged pro-IL-1β; source: purified
As to the kind of experiment: SEC; TRIM20Δ413 and pro-IL-1β incubated at 4 °C before SEC; both purified. In general terms: In gel filtration, larger molecules generally elute earlier.

Chains of the proteins cited; added tags and fusions are not shown. Lines headed by an entry give the natural chain unless they say otherwise; changes in a name come on top.
UniProt P01584: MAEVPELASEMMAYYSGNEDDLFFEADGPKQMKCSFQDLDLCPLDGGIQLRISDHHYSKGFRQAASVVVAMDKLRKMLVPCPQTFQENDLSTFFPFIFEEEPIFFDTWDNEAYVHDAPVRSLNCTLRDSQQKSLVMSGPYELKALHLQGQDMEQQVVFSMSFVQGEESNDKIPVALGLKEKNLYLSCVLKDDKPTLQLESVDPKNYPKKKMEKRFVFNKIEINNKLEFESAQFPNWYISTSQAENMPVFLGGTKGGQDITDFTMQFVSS

Experiment [2] concerns the target T1, pro-interleukin-1β. As to the kind of experiment: SEC; TRIM20Δ413 and pro-IL-1β incubated at 25 °C (1 h or longer) before SEC; co-elution verified by SDS-PAGE; both purified.
In experiment [3] the target is T1, pro-interleukin-1β. As to the kind of experiment: co-IP; 10 μM TRIM20 construct incubated with 10 μg purified FLAG-tagged pro-IL-1β in 100 μl; precipitated with ANTI-FLAG M2 Affinity Gel; SDS-PAGE; both purified.

These are yes or no findings as the source states them, for the method shown. For some of these results: Binding calls can cover weak binding; strength is not graded here. For some of these results: In cells and extracts the contact can be indirect.

B1: TRIM20Δ413 (TRIM20 coiled-coil/B30.2 fragment) (domain or fragment, human, UniProt O15553 414-781, looked up)
chain: EVALEHKKKIQKQLEHLKKLRKSGEEQRSYGEEKAVSFLKQTEALKQRVQRKLEQVYYFLEQQEHFFVASLEDVGQMVGQIRKAYDTRVSQDIALLDALIGELEAKECQSEWELLQDIGDILHRAKTVPVPEKWTTPQEIKQKIQLLHQKSEFVEKSTKYFSETLRSEMEMFNVPELIGAQAHAVNVILDAETAYPNLIFSDDLKSVRLGNKWERLPDGPQRFDSCIIVLGSPSFLSGRRYWEVEVGDKTAWILGACKTSISRKGNMTLSPENGYWVVIMMKENEYQASSVPPTRLLIKEPPKRVGIFVDYRVGSISFYNVTARSHIYTFASCSFSGPLQPIFSPGTRDGGKNTAPLTICPVGGQGPD
notes: TRIM20 (pyrin, marenostrin), human, UniProt O15553; construct starting with E414, comprising the CHS (coiled-coil, E414-N586) and B30.2 (E589-G776) domains; Calculated monomer mass printed as 42 737 Da (85.7 kDa dimer); also called CHS-B30.2; TRIM20 C-terminal coiled-coil/B30.2 fragment; source: purified
Take B1: the results for the binding result in experiment [1], in experiment [2] and in experiment [3] were “no binding (only after incubation at 4 °C)”, “binds” and “binds”, respectively.

B2: isolated TRIM20 B30.2 domain (domain or fragment, UniProt O15553 577-781)
chain: TLRSEMEMFNVPELIGAQAHAVNVILDAETAYPNLIFSDDLKSVRLGNKWERLPDGPQRFDSCIIVLGSPSFLSGRRYWEVEVGDKTAWILGACKTSISRKGNMTLSPENGYWVVIMMKENEYQASSVPPTRLLIKEPPKRVGIFVDYRVGSISFYNVTARSHIYTFASCSFSGPLQPIFSPGTRDGGKNTAPLTICPVGGQGPD
Regarding B2, the binding entry in experiment [3] is given as “no binding (tested: 10 μM)”.

These data come from article PMC4455283, “Crystal structure of TRIM20 C-terminal coiled-coil/B30.2 fragment: implications for the recognition of higher order oligomers” (Scientific Reports, 2015).
